Reference: publication PMC8546589
No constants are given. Whether binding was seen depends on the method and setting. In cells and extracts the contact can be indirect. Here binding means that the protein was enriched with, or labelled near, the bait; the list need not be complete. Sequences can lack the tags named with a protein. Blank lines part the entries; values can stand above or below the molecule they belong to.

Amino acid sequences for entries named in this document (tags omitted). A change or cut given only in a name is not applied to a line headed by its entry.
UniProt C4LTS8: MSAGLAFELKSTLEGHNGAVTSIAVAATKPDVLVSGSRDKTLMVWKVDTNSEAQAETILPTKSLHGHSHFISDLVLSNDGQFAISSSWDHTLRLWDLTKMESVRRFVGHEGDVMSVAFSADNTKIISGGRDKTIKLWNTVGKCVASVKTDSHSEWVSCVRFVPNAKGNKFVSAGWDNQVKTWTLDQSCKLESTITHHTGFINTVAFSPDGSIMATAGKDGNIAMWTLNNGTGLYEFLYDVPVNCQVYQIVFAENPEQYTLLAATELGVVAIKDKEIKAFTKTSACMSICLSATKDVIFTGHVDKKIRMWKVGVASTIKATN

Assays:
[1] = target: T1, Myc-NAP07 (E. histolytica) (UniProt C4M608); assay: affinity purification with mass spectrometry; anti-c-Myc agarose IP from whole-cell lysate of E. histolytica lines overexpressing Myc-NAP07, Myc-NAP12, Myc-EBP-1, Myc-GNB2L1 or Myc-Tudor-like protein; LC-MS/MS in duplicate; hits in both replicates and exclusive against the Luc control
T1 sequence: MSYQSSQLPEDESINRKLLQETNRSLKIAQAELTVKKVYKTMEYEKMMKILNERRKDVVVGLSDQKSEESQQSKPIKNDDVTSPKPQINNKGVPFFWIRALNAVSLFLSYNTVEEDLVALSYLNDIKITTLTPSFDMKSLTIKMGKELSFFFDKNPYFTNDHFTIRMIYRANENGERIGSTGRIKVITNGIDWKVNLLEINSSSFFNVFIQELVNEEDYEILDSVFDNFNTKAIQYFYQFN

[2] = target: T2, Myc-NAP12 (E. histolytica) (UniProt C4M8H9); assay: as above
T2 sequence: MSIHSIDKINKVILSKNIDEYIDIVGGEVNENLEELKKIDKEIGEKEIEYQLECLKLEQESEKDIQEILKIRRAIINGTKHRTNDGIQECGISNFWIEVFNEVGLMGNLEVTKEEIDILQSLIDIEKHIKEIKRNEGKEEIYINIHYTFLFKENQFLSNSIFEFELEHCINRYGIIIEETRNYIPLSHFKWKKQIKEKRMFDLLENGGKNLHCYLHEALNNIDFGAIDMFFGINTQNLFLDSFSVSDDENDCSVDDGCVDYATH

[3] = target: T3, Myc-Tudor-like protein (E. histolytica) (UniProt C4M0A8); assay: as above
T3 sequence: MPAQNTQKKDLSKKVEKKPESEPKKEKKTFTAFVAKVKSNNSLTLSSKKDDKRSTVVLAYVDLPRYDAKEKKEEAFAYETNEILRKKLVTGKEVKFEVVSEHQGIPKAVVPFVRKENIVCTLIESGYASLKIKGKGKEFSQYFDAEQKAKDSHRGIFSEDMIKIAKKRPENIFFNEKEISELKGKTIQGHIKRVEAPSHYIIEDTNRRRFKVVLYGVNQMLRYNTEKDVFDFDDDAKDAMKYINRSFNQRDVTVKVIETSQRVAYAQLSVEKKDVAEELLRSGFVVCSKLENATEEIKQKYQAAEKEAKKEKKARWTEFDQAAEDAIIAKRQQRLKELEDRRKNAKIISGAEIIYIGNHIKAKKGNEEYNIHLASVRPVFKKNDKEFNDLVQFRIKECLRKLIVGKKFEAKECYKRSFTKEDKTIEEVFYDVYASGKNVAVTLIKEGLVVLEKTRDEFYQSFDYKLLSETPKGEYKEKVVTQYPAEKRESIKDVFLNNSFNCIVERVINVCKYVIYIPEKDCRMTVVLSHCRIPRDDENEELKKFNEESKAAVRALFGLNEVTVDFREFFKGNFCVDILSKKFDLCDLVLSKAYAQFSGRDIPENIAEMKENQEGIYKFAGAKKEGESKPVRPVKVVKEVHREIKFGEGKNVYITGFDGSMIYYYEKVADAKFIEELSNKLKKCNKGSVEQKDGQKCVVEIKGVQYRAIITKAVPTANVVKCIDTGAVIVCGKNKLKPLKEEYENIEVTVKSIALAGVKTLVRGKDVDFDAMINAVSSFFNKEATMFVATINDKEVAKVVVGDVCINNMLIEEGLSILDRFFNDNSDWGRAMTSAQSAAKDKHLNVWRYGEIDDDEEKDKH

[4] = target: T4, Myc-EhRdRP2 (E. histolytica) (UniProt C4M631); assay: affinity purification with mass spectrometry; anti-c-Myc agarose IP from whole-cell lysate of E. histolytica lines overexpressing the Myc-tagged bait (EhAgo2-2 WT, its two mutants, EhRdRP1, EhRdRP2), 2 h at 4°C, six low-stringency washes; LC-MS/MS in triplicate; nonribosomal hits in at least 2 of 3 data sets, exclusive or ≥3-fold enriched against the Luc control
T4 sequence: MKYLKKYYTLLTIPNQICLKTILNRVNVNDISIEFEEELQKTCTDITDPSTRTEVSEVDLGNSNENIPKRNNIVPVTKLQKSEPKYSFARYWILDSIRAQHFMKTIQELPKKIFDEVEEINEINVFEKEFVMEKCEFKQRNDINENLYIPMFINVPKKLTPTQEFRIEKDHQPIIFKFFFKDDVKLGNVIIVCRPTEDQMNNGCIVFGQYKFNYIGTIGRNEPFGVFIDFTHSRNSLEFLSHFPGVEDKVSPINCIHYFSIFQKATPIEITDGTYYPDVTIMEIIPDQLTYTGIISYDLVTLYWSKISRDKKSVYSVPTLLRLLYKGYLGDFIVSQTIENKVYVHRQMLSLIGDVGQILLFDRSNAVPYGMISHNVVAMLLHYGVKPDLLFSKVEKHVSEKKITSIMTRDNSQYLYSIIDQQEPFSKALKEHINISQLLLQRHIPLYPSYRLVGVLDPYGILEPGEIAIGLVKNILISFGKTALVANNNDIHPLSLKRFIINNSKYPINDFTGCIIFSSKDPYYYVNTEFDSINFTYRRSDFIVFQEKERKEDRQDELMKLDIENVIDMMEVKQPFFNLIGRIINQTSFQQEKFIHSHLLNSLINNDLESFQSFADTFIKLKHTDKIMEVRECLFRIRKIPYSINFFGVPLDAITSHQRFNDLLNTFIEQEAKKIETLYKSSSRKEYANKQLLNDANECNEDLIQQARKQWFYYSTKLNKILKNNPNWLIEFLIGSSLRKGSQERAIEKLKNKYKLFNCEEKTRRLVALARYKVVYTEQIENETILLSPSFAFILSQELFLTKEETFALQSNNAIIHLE

- binding [1]: binds
- binding [2]: binds
- binding [3]: binds
- binding [4]: binds
Molecule: guanine nucleotide-binding protein subunit beta 2-like 1 (endogenous) (from UniProt C4LTS8)

B1: enhancer binding protein-1 (endogenous) (protein, UniProt C4M5C4 1-306)
chain: MTTLYVSHLDYSLKVEDVQNAFKTYNPKEVKIISTPIGYSRGFAFIEFATPQEAEKALEMDRHTIGKMEIKVQKALPKEETTTERKMNRRGFKGKRNTRKRHLVKRTNEVTDNMLFIKNLPFAITEEKLKEMFSKFGVVEITLIKTHRKKGNVTKNNGIAFITVKTAEEQKKAIAEMNNFEVEGRKITVAAAYKKVENKQTTKKTNEPKSLSETNVFVKNLPFTLTDEGFKKLFEKYDVVEATIVKRHNKKLNVDRSKGYGFVTFKTAEQQKKAIAEMDNFEVEGRKITVTSAYQRAEKKEETTSN
- binding [1]: binds
- binding [2]: binds
- binding [3]: binds
